PubChem BioAssay AID1259254 – NCATS | 2017
Here is an unselected part of about 59,000 reagents. About 1,550 of them (2.6%) were called active. 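G2 share is only a proxy for re-replication; each gene was hit by three separate siRNAs, and active genes were retested.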 Raw values vary from plate to plate and are shown uncorrected. Unmarked entries are inactive. The numbers tell different reagents against one gene apart. The record does not give: the amount of reagent.

- Aim: 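Finding genes that stop cells copying their DNA twice in one cycle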 (primary screen)
- Cell system: human HCT116 colorectal cancer cells
- Reagent: single siRNA against human genes
- Duration: 3 days
- Measured: 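Nuclei stained with Hoechst and imaged; cell-cycle phase assigned by DNA content; G2 share scaled per plate, non-targeting siRNA 0%, GMNN siRNA 100%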
- Direction: G2 robust z-score and G2 cells, % of GMNN control: higher = more G2 cells, more excess DNA replication; raw share of cells in G2: higher = larger share of cells with G2 DNA content
- Hit rule: 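Active siRNAs have a G2 robust z of 5 or more median absolute deviations over the median, which in these data means about 38% or higher of GMNN control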

gene knocked down	reagent	G2 robust z-score	G2 cells, % of GMNN control	raw share of cells in G2 (%)
RPL39	1	6.78 (active)	50.7	26.5
RPL39	2	3.09	24.7	14
RPL39	3	3.03	24.3	12.1
CACYBP	1	-0.187	1.65	4.74
CACYBP	2	-0.127	2.07	4.67
CACYBP	3	0.712	7.98	9.78
CLDN23	1	2.55	20.9	10.3
CLDN23	2	-0.898	-3.35	2
CLDN23	3	0.341	5.37	5.41
BTN1A1	1	-0.489	-0.471	3.82
BTN1A1	2	-0.0951	2.3	5.5
BTN1A1	3	-1.11	-4.82	3.36
FRG2C	1	-0.216	1.45	3.71
FRG2C	2	-0.277	1.02	4.01
FRG2C	3	0.468	6.26	5.46
OR2C3	1	2.68	21.8	13.5
OR2C3	2	2.52	20.7	13.4
OR2C3	3	-0.85	-3.01	1.55
DUSP28	1	0.647	7.52	5.76
DUSP28	2	1.39	12.8	8.94
DUSP28	3	-0.369	0.374	4.42
GPX1	1	-0.989	-3.99	3.79
GPX1	2	-0.192	1.61	4.23
GPX1	3	4.91	37.5	19.5
PRPF8	1	5.06 (active)	38.6	22.4
PRPF8	2	2.49	20.5	10.5
PRPF8	3	3.11	24.9	16.3
PIP4K2A	1	-0.722	-2.11	4.91
PIP4K2A	2	-1.18	-5.3	3.62
PIP4K2A	3	-0.939	-3.64	2.74
PLSCR1	1	0.268	4.85	6.65
PLSCR1	2	-0.865	-3.12	3.49
PLSCR1	3	-0.711	-2.03	3.47
SSBP4	1	2.48	20.4	12.2
SSBP4	2	0.178	4.22	6.47
SSBP4	3	3.11	24.8	17.8
ZNF141	1	-0.889	-3.29	2.43
ZNF141	2	2.03	17.2	13.7
ZNF141	3	0.0317	3.19	4.68
ZNF253	1	0.997	9.98	6.31
ZNF253	2	-0.9	-3.36	4.39
ZNF253	3	3.71	29.1	12.8
TRIM50	1	-0.883	-3.24	3.34
TRIM50	2	1.59	14.2	9.89
TRIM50	3	5.83 (active)	44	26.9
ATP6V1B2	1	-0.792	-2.61	4.34
ATP6V1B2	2	-0.506	-0.595	4.58
ATP6V1B2	3	-0.906	-3.4	3.05
